Laboratory results published in paper PMC5482481.
Positions count from the first letter of the chain named. Results are given in words; binding and its absence hold for the method and conditions named. Binding seen in cells or lysates may run through a third protein. Some binding calls cover weakened binding; strength is not graded here. Sequences can lack the tags named with a protein.

Chains of the proteins cited; added tags and fusions are not shown.
UniProt P37231: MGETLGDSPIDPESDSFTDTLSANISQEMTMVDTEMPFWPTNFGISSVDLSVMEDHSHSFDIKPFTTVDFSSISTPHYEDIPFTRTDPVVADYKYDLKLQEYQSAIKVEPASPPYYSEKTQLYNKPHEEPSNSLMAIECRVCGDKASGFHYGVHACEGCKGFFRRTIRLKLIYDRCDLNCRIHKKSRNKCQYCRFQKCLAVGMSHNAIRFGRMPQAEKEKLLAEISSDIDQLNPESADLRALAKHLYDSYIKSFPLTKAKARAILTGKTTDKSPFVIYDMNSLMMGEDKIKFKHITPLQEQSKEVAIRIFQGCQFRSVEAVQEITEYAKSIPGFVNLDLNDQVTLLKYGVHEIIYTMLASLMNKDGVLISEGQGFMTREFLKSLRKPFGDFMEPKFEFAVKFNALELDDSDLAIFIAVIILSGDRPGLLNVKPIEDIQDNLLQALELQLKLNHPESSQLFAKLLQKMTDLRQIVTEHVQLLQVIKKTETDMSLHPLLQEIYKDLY

Columns and labels:
[1] = molecular target: T1, pig Pgc1α p.C430S, myc-tagged (pig) (UniProt Q865B6); test: co-IP; HEK293T cells co-transfected with DYK-tagged OGT and Pgc1α-myc WT or p.C430S; lysis in 50 mM TRIS pH 8, 150 mM NaCl, 1% NP-40, 0.1 mM EDTA, 2 mM nicotinamide, 10 mM NaF; anti-myc (9E10) at 4 °C overnight, Dynabeads 2 h at 4 °C; blot with anti-PPARγ; non-transfected cells as control
T1 sequence (chain, O-GlcNAc (sites not stated; level higher than in WT)): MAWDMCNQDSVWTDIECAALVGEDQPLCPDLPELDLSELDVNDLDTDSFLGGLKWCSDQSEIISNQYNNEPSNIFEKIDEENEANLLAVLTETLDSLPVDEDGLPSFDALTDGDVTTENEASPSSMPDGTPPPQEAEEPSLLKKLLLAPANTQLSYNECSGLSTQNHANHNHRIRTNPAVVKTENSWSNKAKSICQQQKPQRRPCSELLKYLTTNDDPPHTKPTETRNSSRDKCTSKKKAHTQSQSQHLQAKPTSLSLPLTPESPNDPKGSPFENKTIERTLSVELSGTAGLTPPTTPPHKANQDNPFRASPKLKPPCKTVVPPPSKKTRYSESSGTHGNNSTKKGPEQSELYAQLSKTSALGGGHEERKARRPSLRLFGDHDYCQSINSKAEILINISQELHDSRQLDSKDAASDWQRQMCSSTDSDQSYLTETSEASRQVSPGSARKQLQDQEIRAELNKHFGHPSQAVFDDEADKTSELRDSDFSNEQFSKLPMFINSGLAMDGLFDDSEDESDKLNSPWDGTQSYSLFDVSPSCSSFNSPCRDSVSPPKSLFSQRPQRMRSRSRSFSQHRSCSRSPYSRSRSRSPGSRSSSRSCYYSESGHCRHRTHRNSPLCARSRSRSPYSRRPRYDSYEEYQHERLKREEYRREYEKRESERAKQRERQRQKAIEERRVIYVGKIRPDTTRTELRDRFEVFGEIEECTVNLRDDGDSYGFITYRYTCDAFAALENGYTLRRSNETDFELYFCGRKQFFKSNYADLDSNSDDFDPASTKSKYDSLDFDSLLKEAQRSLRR

[2] = molecular target: T2, pig Pgc1α wild type (p.430C), myc-tagged (pig) (UniProt Q865B6); test: as above
T2 sequence (chain, O-GlcNAc (sites not stated; level lower than in p.C430S)): T1 sequence (chain, O-GlcNAc (sites not stated; level higher than in WT)) with S430C

- binding [1]: binds
- binding [2]: binds
Substance: PPARγ (from UniProt P37231 1-505)
